Measured values from patent US6663881B2 (priority 1993, dated 2003).
For some assays here: For at least one compound, name, drawing or mass did not settle the structure. Some entries share one result that the patent states for a list of compounds.

Columns and labels:
[1] = test system: BO54 (smooth muscle) cells; type: cell-based, baboon
[2] = test system: HT29 cells (colon carcinoma); type: cell-based
M14 (melanoma) cells = type: cell-based
[3] = test system: vascular smooth muscle cells of pig arteries; type: in vivo; details: 4 days post-trauma
[4] = test system: balloon traumatized pig femoral arteries; assay: Biological stenting of balloon traumatized pig femoral arteries (luminal area morphometry); type: in vivo; details: 0.01 μg/ml, 1 atm 3 minutes, 3 weeks
Method: Pig femoral arteries were traumatized as described in Example 7, and then treated with cytochalasin B. About 1.5 to about 2 ml of cytochalasin B at 0.1 μg/ml was infused into portions of the artery that had been separated from other portions by ligatures. The artery was then pressurized for 3 minutes and the fluid aspirated. Approximately 8 to about 30 lambda of the solution is retained in the interstitial space surrounding the cells in the tunica media. Ten femoral arteries (two arteries obtained from each of the 5 pigs that were treated according to the single dose protocol described in Example 7) were then evaluated histologically at 4 days or 3 weeks after cytochalasin B adminstration. The maximal luminal area of each artery was measured and calculated from digitized microscopic images by a BQ System IV computerized morphometric analysis system (R & M Biometrics, Inc., Nashville, Tenn.). This experiment was repeated with 5 additional pigs (two arteries per pig; cytochalasin B dose=0.1 μg/ml, applied for 3 minutes at 1 atm pressure; same time points). The data obtained from the two experiments were combined.
The luminal area of the traumatized and cytochalasin B-treated segments of the arteries were also compared to the luminal area of the normal, untreated region of the femoral artery proximal to the test area. […]

Compound | concentration at which inhibitory effects on metabolic activity (MTT) were observed [1] [ng/mL] | concentration at which inhibitory effects on metabolic activity (MTT) were observed [2] [ng/mL] | concentration at which inhibitory effects on metabolic activity (MTT) were observed (M14 (melanoma) cells) [ng/mL] | BRDU labeling grade [3] | change in luminal area, treated vs. normal [4]
Pseudomonas exotoxin [PE] | > 100 | > 100 | > 100 | – | –
C=C1[C@@H](C)[C@H]2[C@H](Cc3ccccc3)NC(=O)[C@]23OC(=O)/C=C/[C@H](O)CCC[C@@H](C)C/C=C/[C@H]3[C@@H]1O [cytochalasin B] | – | – | – | 4 (4=>10/HPF) | ±20%
